Assay results as given in PMC9870081.
Results are given in words; binding and its absence hold for the method and conditions named. Binding seen in cells or lysates may run through a third protein. Some results given as binding are weak or reduced against the parent protein; the word gives no strength.

Amino acid sequences for entries named in this document (tags omitted). Residues count along the entry.
UniProt P29279, residues 27-349: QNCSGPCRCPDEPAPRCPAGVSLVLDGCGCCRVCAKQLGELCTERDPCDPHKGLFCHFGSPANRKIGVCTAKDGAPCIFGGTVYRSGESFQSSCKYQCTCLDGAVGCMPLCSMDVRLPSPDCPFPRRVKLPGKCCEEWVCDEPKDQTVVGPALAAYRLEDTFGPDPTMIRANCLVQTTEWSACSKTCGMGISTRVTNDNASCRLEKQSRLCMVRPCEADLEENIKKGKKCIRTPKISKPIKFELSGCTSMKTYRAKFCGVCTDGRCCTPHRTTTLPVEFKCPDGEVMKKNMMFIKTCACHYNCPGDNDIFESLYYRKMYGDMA
UniProt P37173, residues 23-567: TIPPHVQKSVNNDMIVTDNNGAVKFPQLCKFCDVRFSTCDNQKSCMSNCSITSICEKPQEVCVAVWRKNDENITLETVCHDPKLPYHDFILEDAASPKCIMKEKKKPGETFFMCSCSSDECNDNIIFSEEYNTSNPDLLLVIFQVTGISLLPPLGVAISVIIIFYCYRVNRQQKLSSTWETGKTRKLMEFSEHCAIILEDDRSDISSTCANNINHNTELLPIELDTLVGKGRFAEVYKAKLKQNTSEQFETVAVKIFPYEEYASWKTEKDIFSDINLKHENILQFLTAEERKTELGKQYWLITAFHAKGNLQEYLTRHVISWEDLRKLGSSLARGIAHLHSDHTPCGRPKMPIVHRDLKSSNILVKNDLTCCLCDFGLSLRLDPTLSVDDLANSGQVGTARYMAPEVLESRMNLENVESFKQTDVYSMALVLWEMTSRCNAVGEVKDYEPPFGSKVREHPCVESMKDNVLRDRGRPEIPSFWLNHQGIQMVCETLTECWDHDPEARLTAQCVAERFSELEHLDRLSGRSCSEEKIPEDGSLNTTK

Target: Cellular communication network factor 2 (CCN2) (human) (UniProt P29279)
Assay: co-IP; HASMCs infected with AdCCN2, starved 6 hours (0.5% FBS), incubated with rhTGF-β1 (1 ng/mL) and rhCCN2 (100 ng/mL) for 30 minutes, fixed with 1% formaldehyde on ice for 10 minutes, lysed in Co-IP buffer; precipitated with anti-CCN2 antibody on protein G beads; Western blot for TGFBR2 and TGF-β1; normal rabbit IgG as negative control

- binding: binds
Substance: TGF-β receptor 2 (from UniProt P37173 23-567)
